In patent US20130225508A1, “PEPTIDE CAPABLE OF BINDING TO IMMUNOGLOBULIN” (priority 2010, published 2013):
Not every detail of the peptide structures is certain; ends, links or a residue may be inferred. Some of these results come from one statement about several compounds together. Non-standard residues stand in square brackets, D forms with d. Residues, ends and D or L forms follow the SMILES beside them. No end group written: not given here.

What was measured:
[1] = test system: monoclonal antibody cocktail-induced arthritis; assay: Mice monoclonal antibody cocktail-induced arthritis model; assay type: in vivo, Mice (BALB/c Cr Slc); details: for difference in the volume ratio relative to the control group: day 8
Description: 1-1 Mice (BALB/c Cr Slc (SPF)) were used to examine arthritis suppressing effects of peptides of the present invention on monoclonal antibody cocktail-induced arthritis. Mice were fed normal chow and allowed to acclimate for 6 days before used in experiments.
Arthritis was caused by intravenous administration of 2 mg/animal of an arthritis-inducing monoclonal antibody cocktail and three days later, intraperitoneal administration of 50 μg/animal of lipopolysaccharide (LPS). Peptides R1 and R9 each were intraperitoneally administered at a dose of 10 mg/kg once a day from the day following the LPS administration (day 4) to day 14. Peptide SP4 and the variant of peptide SP4 composed of the corresponding D-amino acids (except for glycine) each were intraperitoneally administered at a dose of 10 or 100 mg/kg once a day from the day following the LPS administration (day 4) to day 14. […] A control group was given physiological saline at 10 mL/kg once a day from day 4.
To forty 7-week-old mice, the arthritis-inducing monoclonal antibody cocktail was intravenously administered at a dose of 2 mg/animal on day 0, and LPS was intraperitoneally administered at a dose of 50 μg/animal on day 3.
[…] As a control, physiological saline was intraperitoneally administered once a day from day 4, and the volume of administration was 10 ml/kg. […] Needles ([…]; Terumo) and syringes (1.0-ml capacity; Terumo) were used for administration.
Observation of clinical score was performed on even days from day 0 to day 14 as follows. The total score for the extremities was set to a maximum of 12. Visual observation of swelling of the legs was performed.
0: normal joint 1: slight inflammation and redness 2: serious erythema and swelling over the whole limb and preventing the use of the limb 3: deformation of the limb or joint accompanied by ankylosis, joint stiffness, loss of function
Results of examinations are expressed by mean value±standard error and were analyzed using EXSAS (Version 7.1.6, Arm Systex Co., Ltd.). Clinical scores were subjected to Wilcoxon's test. Quantitative data, such as body weights and leg volumes, were subjected to Bartlett's test, followed by Dunnett's multiple comparison test if the variance was uniform or by Steel's multiple comparison test if the variance was not uniform. The level of significance was set at 5% on both sides.

[2] = test system: binding between human C1q protein and human immunoglobulin (IgG); assay: Inhibition of binding between C1q and immunoglobulin (C1q spotted on nitrocellulose membrane, ALP-labeled IgG); details: peptide concentration 500 μg/ml
[3] = Evaluation of solubility of peptides in water (PBS or physiological saline); assay type: physicochemical
Description: Water solubility was evaluated for peptides in which various kinds of hydrophilic amino acid were substituted for the 4th and 5th amino acids which were verified in (1) to be allowed to be mutated. The peptides listed in Table 2 were synthesized by GL Biochem (Shanghai). Among the peptides listed in Table 2, peptides SP1 to SP7 are peptides in which various kinds of hydrophilic amino acid were substituted for the 4th and 5th amino acids.
In Table 3, the circle symbol is assigned to a peptide which was dissolved in a solvent (PBS or physiological saline) at a concentration of 10 mg/ml or higher, and the cross symbol is assigned to a peptide which was not dissolved at a concentration of 1 mg/ml. […] In the subsequent experiments, the peptides in which the 4th and 5th amino acids were substituted by hydrophilic amino acids were used.

[4] = test system: synovial cells collected from a human RA patient; assay: Production of inflammation associated proteins induced by TNF-α stimulation of synovial cells (real-time RT-PCR); assay type: cell-based; details: peptide added at 1, 10 or 100 μg, 24 hours
[5] = day 0, 10 mg/kg intraperitoneal group
[6] = day 6, 10 mg/kg intraperitoneal once a day from day 4
[7] = day 8 (highest value), 10 mg/kg intraperitoneal once a day from day 4
[8] = day 8 (highest), 10 mg/kg intraperitoneal once a day from day 4
[9] = day 12, 10 mg/kg intraperitoneal once a day from day 4
[10] = day 14, 10 mg/kg intraperitoneal once a day from day 4
[11] = day 6, 100 mg/kg intraperitoneal once a day from day 4
[12] = day 14, 100 mg/kg intraperitoneal once a day from day 4

CC(C)C[C@@H](NC(=O)CNC(=O)[C@H]1CCCN1)C(=O)N[C@H](Cc1ccc(O)cc1)C(=O)N[C@H](Cc1ccc(O)cc1)C(=O)N[C@H](Cc1ccccc1)C(=O)O [R9, dPGdLdYdYdF] (H-[dP]G[dL][dY][dY][dF]-OH; N-terminus and C-terminus assumed)
hind-limb volume [1, 5]: 0.212 cm^3 | hind-limb volume [1, 6]: 0.367 cm^3 | increasing rate of hind-limb volume (volume on day 0 = 100%) [1, 6]: 173.7% | hind-limb volume [1, 7]: 0.455 cm^3 | increasing rate of hind-limb volume (volume on day 0 = 100%) [1, 8]: 215.1% | clinical score [1, 9]: 7.0±0.7 | clinical score [1, 10]: 7.4±0.9 | hind-limb volume [1, 10]: 0.328 cm^3 | increasing rate of hind-limb volume (volume on day 0 = 100%) [1, 10]: 155.1%

PGLYAF [R6, PGLYAF]
inhibition of the binding between C1q and an immunoglobulin (immunoglobulin binding ability) [2]: inhibit the binding between C1q and an immunoglobulin

PGLYYF [R1, PGLYYF]
hind-limb volume [1, 5]: 0.213 cm^3 | hind-limb volume [1, 6]: 0.403 cm^3 | increasing rate of hind-limb volume (volume on day 0 = 100%) [1, 6]: 190.2% | hind-limb volume [1, 7]: 0.452 cm^3 | increasing rate of hind-limb volume (volume on day 0 = 100%) [1, 8]: 213.2% | clinical score [1, 10]: 9.6±0.8 | hind-limb volume [1, 10]: 0.343 cm^3 | increasing rate of hind-limb volume (volume on day 0 = 100%) [1, 10]: 161.8% | concentration at which the peptide dissolved in the solvent [3]: < 1000 µg/mL | inhibition of the binding between C1q and an immunoglobulin (immunoglobulin binding ability) [2]: inhibit the binding between C1q and an immunoglobulin

PGLEHF [SP6, PGLEHF]
inhibition of the binding between C1q and an immunoglobulin (immunoglobulin binding ability) [2]: inhibit the binding between C1q and an immunoglobulin

PGLEKF [SP4, PGLEKF]
arthritis suppressing effect compared with methotrexate ([1]; 10 and 100 mg/kg intraperitoneal, methotrexate 0.15 mg/kg): greater effect of suppressing arthritis | hind-limb volume [1, 5]: 0.223 cm^3 | hind-limb volume ([1]; day 0, 100 mg/kg intraperitoneal group): 0.219 cm^3 | hind-limb volume [1, 6]: 0.368 cm^3 | increasing rate of hind-limb volume (volume on day 0 = 100%) [1, 6]: 165.2% | hind-limb volume [1, 11]: 0.362 cm^3 | increasing rate of hind-limb volume (volume on day 0 = 100%) [1, 11]: 165.5% | hind-limb volume [1, 7]: 0.438 cm^3 | hind-limb volume ([1]; day 8 (highest value), 100 mg/kg intraperitoneal once a day from day 4): 0.418 cm^3 | increasing rate of hind-limb volume (volume on day 0 = 100%) [1, 8]: 196.6% | increasing rate of hind-limb volume (volume on day 0 = 100%) ([1]; day 8 (highest), 100 mg/kg intraperitoneal once a day from day 4): 191.4% | difference in the volume ratio relative to the control group ([1]; 10 mg/kg intraperitoneal): −21.1% | difference in the volume ratio relative to the control group ([1]; 100 mg/kg intraperitoneal): −26.4% | clinical score [1, 9]: 7.2±1.0 | clinical score ([1]; day 12, 100 mg/kg intraperitoneal once a day from day 4): 7.2±0.9 | clinical score [1, 10]: 7.4±1.1 | hind-limb volume [1, 10]: 0.332 cm^3 | increasing rate of hind-limb volume (volume on day 0 = 100%) [1, 10]: 149.1% | clinical score [1, 12]: 8.0±0.9 | hind-limb volume [1, 12]: 0.329 cm^3 | increasing rate of hind-limb volume (volume on day 0 = 100%) [1, 12]: 150.3% | production of inflammation associated proteins (IL-1β, TNF-α, MMP-1, MMP-3) induced by TNF-α stimulation [4]: suppress the production of inflammation associated proteins | inhibition of the binding between C1q and an immunoglobulin (immunoglobulin binding ability) [2]: inhibit the binding between C1q and an immunoglobulin

PGLSSF [SP7, PGLSSF]
inhibition of the binding between C1q and an immunoglobulin (immunoglobulin binding ability) [2]: inhibit the binding between C1q and an immunoglobulin

PGLERF [SP5, PGLERF]
inhibition of the binding between C1q and an immunoglobulin (immunoglobulin binding ability) [2]: inhibit the binding between C1q and an immunoglobulin

PGLDRF [SP2, PGLDRF]
inhibition of the binding between C1q and an immunoglobulin (immunoglobulin binding ability) [2]: inhibit the binding between C1q and an immunoglobulin

PGLAYF [R5, PGLAYF]
inhibition of the binding between C1q and an immunoglobulin (immunoglobulin binding ability) [2]: inhibit the binding between C1q and an immunoglobulin

PGLDKF [SP1, PGLDKF]
inhibition of the binding between C1q and an immunoglobulin (immunoglobulin binding ability) [2]: inhibit the binding between C1q and an immunoglobulin

PGAYYF [R4, PGAYYF]
inhibition of the binding between C1q and an immunoglobulin (immunoglobulin binding ability) [2]: inhibit the binding between C1q and an immunoglobulin

PGLDHF [SP3, PGLDHF]
production of inflammation associated proteins (IL-1β, TNF-α, MMP-1, MMP-3) induced by TNF-α stimulation [4]: suppress the production of inflammation associated proteins | inhibition of the binding between C1q and an immunoglobulin (immunoglobulin binding ability) [2]: inhibit the binding between C1q and an immunoglobulin
